PubChem BioAssay AID504784 | Drosophila RNAi Screening Center – 2011
In all, the deposit lists about 17,000 reagents; this is a random part of those that have a named target and a result. 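Each column is one replicate's B-score; the combined score over replicates was not deposited, so single values may mislead.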 Reagents against one gene are numbered here. Further read-outs or replicates are left out here.

Test: 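Genome-wide knock-down for genes giving too much or too little stored lipid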 (primary screen)
Cells: Drosophila Kc167 embryonic cells
Reagent: long dsRNA against Drosophila genes, about 250 ng dsRNA per well
Duration: 4 days
Challenge: cells fed 400 µM oleic acid bound to BSA
Measurement: 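Microscope images give a droplet-to-nucleus area ratio, taken as log and converted to a screen-wide B-score; higher values mean greater lipid storage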
Direction: droplet/nuclear area B-score: higher = more stored lipid (overstorage)

Silencing of CG34345 came out at: droplet/nuclear area B-score, replicate 1 = 1.01.
Against glo, the values are droplet/nuclear area B-score, replicate 1 = -1.33.
For CG2861, the values are droplet/nuclear area B-score, replicate 1 = 0.0678.
For CG13062, the entry reads droplet/nuclear area B-score, replicate 1 = 0.703.
Silencing of CG13484 gave: droplet/nuclear area B-score, replicate 1 = -0.0327.
Alr gave droplet/nuclear area B-score, replicate 1 = 1.63.
After knock-down of CG12011, the record shows droplet/nuclear area B-score, replicate 1 = -0.816.
Depletion of CG31055 resulted in: droplet/nuclear area B-score, replicate 1 = -0.715.
With knock-down of Oda, the screen gave droplet/nuclear area B-score, replicate 1 = -0.488.
Silencing of CG5096 resulted in: droplet/nuclear area B-score, replicate 1 = -0.0259.
Knock-down of CG7011 gave: droplet/nuclear area B-score, replicate 1 = 2.38.
rau showed droplet/nuclear area B-score, replicate 1 = 0.455.
Depletion of Ir20a came out at: droplet/nuclear area B-score, replicate 1 = 2.42.
With knock-down of tho2, the record shows droplet/nuclear area B-score, replicate 1 = -1.98.
Knock-down of CG12617 resulted in: droplet/nuclear area B-score, replicate 1 = 0.2.
Against Gsc, the entry reads droplet/nuclear area B-score, replicate 1 = -0.56.
beta4GalT7 showed droplet/nuclear area B-score, replicate 1 = -0.166.
RpL27 showed droplet/nuclear area B-score, replicate 1 = 4.08.
Silencing of SIFa came out at: droplet/nuclear area B-score, replicate 1 = -0.68.
CG9003 showed droplet/nuclear area B-score, replicate 1 = -0.507.
For Scm, the values are droplet/nuclear area B-score, replicate 1 = 0.32.
Silencing of Tsp5D came out at: droplet/nuclear area B-score, replicate 1 = -0.503.
Dhc98D showed droplet/nuclear area B-score, replicate 1 = 1.21.
Depletion of hid resulted in: droplet/nuclear area B-score, replicate 1 = 0.711.
MtnC gave droplet/nuclear area B-score, replicate 1 = 0.172.
For Edc3, the values are droplet/nuclear area B-score, replicate 1 = 1.85.
Knock-down of Coq6 came out at: droplet/nuclear area B-score, replicate 1 = -1.43.
Against CalpA the deposit lists droplet/nuclear area B-score, replicate 1 = -0.0101.
CG17896 gave droplet/nuclear area B-score, replicate 1 = 0.177.
Against Smyd4-1, the entry reads droplet/nuclear area B-score, replicate 1 = -0.213.
For ATPsynE, the values are droplet/nuclear area B-score, replicate 1 = 2.84.
Against St2 #1 the deposit lists droplet/nuclear area B-score, replicate 1 = 1.26.
With knock-down of St2 #2, the screen gave droplet/nuclear area B-score, replicate 1 = -0.149.
After knock-down of CG17105, the screen gave droplet/nuclear area B-score, replicate 1 = -0.854.
For CG32582 (retired record) the deposit lists droplet/nuclear area B-score, replicate 1 = -1.07.
For Fatp (retired record) the deposit lists droplet/nuclear area B-score, replicate 1 = -0.506.
With knock-down of Rab39, the screen gave droplet/nuclear area B-score, replicate 1 = -0.308.
CG4951 gave droplet/nuclear area B-score, replicate 1 = 1.07.
Against Efhc1.2, the entry reads droplet/nuclear area B-score, replicate 1 = 2.81.
After knock-down of CG31642, the record shows droplet/nuclear area B-score, replicate 1 = 1.21.
For B52, the values are droplet/nuclear area B-score, replicate 1 = -3.02.
With knock-down of CG17110, the screen gave droplet/nuclear area B-score, replicate 1 = -0.0995.
CG15706 scored droplet/nuclear area B-score, replicate 1 = -3.35.
For CG10102 (retired record), the values are droplet/nuclear area B-score, replicate 1 = -1.77.
After knock-down of ouib, the record shows droplet/nuclear area B-score, replicate 1 = 0.561.
After knock-down of Ptpmeg2 #1 the results were droplet/nuclear area B-score, replicate 1 = 0.314.
Silencing of Ptpmeg2 #2 resulted in: droplet/nuclear area B-score, replicate 1 = 0.054.
Silencing of Ptpmeg2 #3 gave: droplet/nuclear area B-score, replicate 1 = -0.704.
For poe the deposit lists droplet/nuclear area B-score, replicate 1 = 0.775.
For rho-5, the values are droplet/nuclear area B-score, replicate 1 = -6.09.
Silencing of Klp61F came out at: droplet/nuclear area B-score, replicate 1 = 1.39.
